# Results: the supplement of paper PMC4604168 (melanoma cell lines)
# Some of the results follow. Many values rest on one well or one pass, so single values are uncertain.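 Imaging used 1,536-well plates; nuclei positive for cleaved PARP by antibody were divided by total DNA-stained nuclei to yield the apoptosis fraction. Doses for screening kept most cells viable, and cell lines differ markedly in resting and induced cleaved-PARP levels.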
# Tested on: G361
# Test: cleaved PARP positive nuclei fraction relative to DMSO control; melanoma cells; higher = more apoptosis
# Conditions: library dose: low library concentration; 72 h
row,Structure (SMILES),cleaved PARP positive nuclei fraction [%]
1,"O=C(/C=C/c1cccnc1)NCCCCC1CCN(C(=O)c2ccccc2)CC1 + CC(C)(C)c1cnc(CSc2cnc(NC(=O)C3CCNCC3)s2)o1 [SNS-032] (first compound 0.01 µM, partner dose 0.01 µM)",3220
2,"Cc1cn(-c2cc(NC(=O)c3ccc(C)c(Nc4nccc(-c5cccnc5)n4)c3)cc(C(F)(F)F)c2)cn1 [nilotinib] + O=C(CCCCCCC(=O)Nc1ccccc1)NO [vorinostat] (first compound 0.2 µM, partner dose 0.08 µM)",127
3,"N#CC[C@H](C1CCCC1)n1cc(-c2ncnc3[nH]ccc23)cn1 [ruxolitinib] + O=C(O)c1ccc(-c2c[nH]c3ncc(-c4ccccc4)cc23)cc1C1CCCC1 [GSK650394] (first compound 1 µM, partner dose 0.16 µM)",120
4,"O=C(Nc1cc(C(F)(F)F)cc(C(F)(F)F)c1)c1cc(Cl)ccc1O + CO[C@@H]1[C@H](N(C)C(=O)c2ccccc2)C[C@H]2O[C@]1(C)n1c3ccccc3c3c4c(c5c6ccccc6n2c5c31)C(=O)NC4 [Midostaurin] (first compound 0.016 µM, partner dose 0.08 µM)",58.1
5,"N#CC[C@H](C1CCCC1)n1cc(-c2ncnc3[nH]ccc23)cn1 [ruxolitinib] + Cc1ccc(NC(=O)c2cccc(N(C)C)c2)cc1NC(=O)c1ccc(O)cc1 [ZM336372] (first compound 1 µM, partner dose 2 µM)",66.1
6,"N#CC[C@H](C1CCCC1)n1cc(-c2ncnc3[nH]ccc23)cn1 [ruxolitinib] + CC1(C)NC(=O)N(c2ccc([N+](=O)[O-])c(C(F)(F)F)c2)C1=O [nilutamide] (first compound 1 µM, partner dose 1 µM)",65.7
7,"CC[C@]1(O)C[C@H]2CN(CCc3c([nH]c4ccccc34)[C@@](C(=O)OC)(c3cc4c(cc3OC)N(C=O)[C@H]3[C@@](O)(C(=O)OC)[C@H](OC(C)=O)[C@]5(CC)C=CCN6CC[C@]43[C@@H]65)C2)C1 [vincristine] + O=C(Nc1cccc(Cl)c1)Nc1ncc(CCNc2ncnc3ccsc23)s1 [SNS314] (first compound 0.0001 µM, partner dose 0.0008 µM)",71
8,"Cc1cn(-c2cc(NC(=O)c3ccc(C)c(Nc4nccc(-c5cccnc5)n4)c3)cc(C(F)(F)F)c2)cn1 [nilotinib] + CC(C)(C)c1cnc(CSc2cnc(NC(=O)C3CCNCC3)s2)o1 [SNS-032] (first compound 0.2 µM, partner dose 0.01 µM)",75.7
9,"COc1cc([C@@H]2c3cc4c(cc3[C@@H](O[C@@H]3O[C@@H]5CO[C@@H](C)O[C@H]5[C@H](O)[C@H]3O)[C@H]3COC(=O)[C@H]23)OCO4)cc(OC)c1O [etoposide] + NC(=O)Nc1cc(-c2cccc(F)c2)sc1C(=O)N[C@H]1CCCNC1 [AZD7762] (first compound 0.02 µM, partner dose 0.02 µM)",80
10,"Cc1cc(Nc2cc(N3CCN(C)CC3)nc(Sc3ccc(NC(=O)C4CC4)cc3)n2)n[nH]1 [Tozasertib] + Cn1cncc1[C@@](N)(c1ccc(Cl)cc1)c1ccc2c(c1)c(-c1cccc(Cl)c1)cc(=O)n2C [tipifarnib] (first compound 0.006 µM, partner dose 0.01 µM)",71
11,"Cc1ccc(Nc2nccc(N(C)c3ccc4c(C)n(C)nc4c3)n2)cc1S(N)(=O)=O [Pazopanib] + Cn1cncc1[C@@](N)(c1ccc(Cl)cc1)c1ccc2c(c1)c(-c1cccc(Cl)c1)cc(=O)n2C [tipifarnib] (first compound 0.4 µM, partner dose 0.01 µM)",76.4
12,"Cc1cc(Nc2cc(N3CCN(C)CC3)nc(Sc3ccc(NC(=O)C4CC4)cc3)n2)n[nH]1 [Tozasertib] + Cc1ccc(NC(=O)c2cccc(N(C)C)c2)cc1NC(=O)c1ccc(O)cc1 [ZM336372] (first compound 0.006 µM, partner dose 2 µM)",52.4
13,"CC[C@]1(O)C[C@H]2CN(CCc3c([nH]c4ccccc34)[C@@](C(=O)OC)(c3cc4c(cc3OC)N(C=O)[C@H]3[C@@](O)(C(=O)OC)[C@H](OC(C)=O)[C@]5(CC)C=CCN6CC[C@]43[C@@H]65)C2)C1 [vincristine] + CC1(C)NC(=O)N(c2ccc([N+](=O)[O-])c(C(F)(F)F)c2)C1=O [nilutamide] (first compound 0.0001 µM, partner dose 1 µM)",94.3
14,"N#CC[C@H](C1CCCC1)n1cc(-c2ncnc3[nH]ccc23)cn1 [ruxolitinib] + CO[C@@H]1[C@H](N(C)C(=O)c2ccccc2)C[C@H]2O[C@]1(C)n1c3ccccc3c3c4c(c5c6ccccc6n2c5c31)C(=O)NC4 [Midostaurin] (first compound 1 µM, partner dose 0.08 µM)",157
15,"CCCCCCCCCCCCCCCCCCOP(=O)([O-])OC1CC[N+](C)(C)CC1 [Perifosine] + COc1cc2c(Oc3ccc4[nH]c(C)cc4c3F)ncnc2cc1OCCCN1CCCC1 [cediranib] (first compound 0.4 µM, partner dose 0.4 µM)",67
16,"N#CC[C@H](C1CCCC1)n1cc(-c2ncnc3[nH]ccc23)cn1 [ruxolitinib] + COc1cc2c(Oc3ccc4[nH]c(C)cc4c3F)ncnc2cc1OCCCN1CCCC1 [cediranib] (first compound 1 µM, partner dose 0.4 µM)",132
17,"O=C(/C=C/c1cccnc1)NCCCCC1CCN(C(=O)c2ccccc2)CC1 + O=C(O)c1ccc(-c2c[nH]c3ncc(-c4ccccc4)cc23)cc1C1CCCC1 [GSK650394] (first compound 0.01 µM, partner dose 0.16 µM)",2710
18,"Cc1cc(Nc2cc(N3CCN(C)CC3)nc(Sc3ccc(NC(=O)C4CC4)cc3)n2)n[nH]1 [Tozasertib] + NCC(=O)Nc1ccc(-n2nc(C(F)(F)F)cc2-c2ccc3c(ccc4ccccc43)c2)cc1 [OSU03012] (first compound 0.006 µM, partner dose 1 µM)",73.9
19,"Cc1cn(-c2cc(NC(=O)c3ccc(C)c(Nc4nccc(-c5cccnc5)n4)c3)cc(C(F)(F)F)c2)cn1 [nilotinib] + CO[C@@H]1[C@H](N(C)C(=O)c2ccccc2)C[C@H]2O[C@]1(C)n1c3ccccc3c3c4c(c5c6ccccc6n2c5c31)C(=O)NC4 [Midostaurin] (first compound 0.2 µM, partner dose 0.08 µM)",113
20,"Cc1ccc(Nc2nccc(N(C)c3ccc4c(C)n(C)nc4c3)n2)cc1S(N)(=O)=O [Pazopanib] + CN(NC(=O)CC(=O)NN(C)C(=S)c1ccccc1)C(=S)c1ccccc1 [STA4783] (first compound 0.4 µM, partner dose 0.006 µM)",256
21,"COc1cc([C@@H]2c3cc4c(cc3[C@@H](O[C@@H]3O[C@@H]5CO[C@@H](C)O[C@H]5[C@H](O)[C@H]3O)[C@H]3COC(=O)[C@H]23)OCO4)cc(OC)c1O [etoposide] + Cc1ccc(NC(=O)c2cccc(N(C)C)c2)cc1NC(=O)c1ccc(O)cc1 [ZM336372] (first compound 0.02 µM, partner dose 2 µM)",119
22,"O=C(/C=C/c1cccnc1)NCCCCC1CCN(C(=O)c2ccccc2)CC1 + CN(NC(=O)CC(=O)NN(C)C(=S)c1ccccc1)C(=S)c1ccccc1 [STA4783] (first compound 0.01 µM, partner dose 0.006 µM)",3880

# Reprinted, nos. 12 to 13
row,Structure (SMILES),cleaved PARP positive nuclei fraction [%]
12,"Cc1cc(Nc2cc(N3CCN(C)CC3)nc(Sc3ccc(NC(=O)C4CC4)cc3)n2)n[nH]1 [Tozasertib] + Cc1ccc(NC(=O)c2cccc(N(C)C)c2)cc1NC(=O)c1ccc(O)cc1 [ZM336372] (first compound 0.006 µM, partner dose 2 µM)",52.4
13,"CC[C@]1(O)C[C@H]2CN(CCc3c([nH]c4ccccc34)[C@@](C(=O)OC)(c3cc4c(cc3OC)N(C=O)[C@H]3[C@@](O)(C(=O)OC)[C@H](OC(C)=O)[C@]5(CC)C=CCN6CC[C@]43[C@@H]65)C2)C1 [vincristine] + CC1(C)NC(=O)N(c2ccc([N+](=O)[O-])c(C(F)(F)F)c2)C1=O [nilutamide] (first compound 0.0001 µM, partner dose 1 µM)",94.3
